The exact form of at least one protein or probe is not confirmed. For some of these results: Weaker means in comparison with the reference protein, sequence or condition of that experiment. At least one verdict was read from the data and is not stated in words by the source. For some of these results: Where a protein sequence is shown, tags need not be part of it.

Protein sequences, listed by entry. Tags and fused reporters are not part of them. Lines headed by an entry give the natural chain unless they say otherwise; changes in a name come on top.
UniProt P19267: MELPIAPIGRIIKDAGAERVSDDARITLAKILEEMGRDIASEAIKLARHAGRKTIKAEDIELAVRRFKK

The target of data set [1] is HMfB (Methanothermus fervidus) (UniProt P19267). The data set can be described thus: EMSA. The settings on record: EMSA: 25 mM Tris pH 8.0, 50 mM NaCl, 50 mM KCl, 37 C 10 min; recombinant protein.
For data set [2], the target named is T1, HLp (Leptospira perolatii) (UniProt A0A2M9ZN55).
T1 sequence (looked up): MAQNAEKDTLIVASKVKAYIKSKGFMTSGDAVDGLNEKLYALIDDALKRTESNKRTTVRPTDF
The data set can be described thus: EMSA. The conditions noted are these: EMSA: 25 mM Tris pH 8.0, 50 mM NaCl, 50 mM KCl, 37 C 10 min; recombinant protein; residues 1-63; protein details: N-terminal His6, cleaved with TEV protease. (In general: Mobility shift assays separate free from complexed probe on a gel.)

As to “CCGTACTGTCGTCTGCGGCCTTTGATTATCAATTAAAGCGTTCTACGGCGTTTTTGATCGCTCAACGTGCGGAGCTAGAT (double strand) [80-bp DNA]”, in data set [1], the binding result was “binds”.
As for “TTAAAGCCCGTTAAAGCCCGTTAAAGCCCG (double strand) [30-bp-GC50]”, the binding result in data set [2] was “binds more weakly”.
The same measure, in the same setting: as for “TTAAGCCCCGTTAAGCCCCGTTAAGCCCCG (double strand) [30-bp-GC60]”, the entry is “binds more weakly”.
In the case of “TTTAAAACGCTTTAAAACGCTTTAAAACGC (double strand) [30-bp-GC30]”, the binding result in data set [2] is recorded as “binds more weakly”.

The values above are taken from PMC12701072.
